Test system: C57BL/6 mice
Assay: Novelty suppressed feeding (NSF)
Assay type: in vivo, mouse
Details: female C57BL/6 mice; one week before CFC stress; (R,S)-ketamine 10 mg/kg, combined 10 + 1.5 mg/kg
Description: All food was removed from the home cage.

`CNC1(c2ccccc2Cl)CCCCC1=O` (racemic) [(R,S)-ketamine, (RS)-2-(2-chlorophenyl)-2-(methylamino)cyclohexanone] was tested, and the “Body weight loss, NSF” value was “did not alter” and the “Latency to feed in the home cage, NSF” value was “did not alter”.

Source: patent US20230121608A1, “Compositions and Methods for the Prevention of Stress-Induced Fear, Depressive-Like and Anxiety- Like Behavior” (The Trustees of Columbia University in the City of New York, priority 2020, published 2023)
